Laboratory results published in PMC12040169 (PLOS Biology, 2025).
This is one part of the list.

The molecules below were run on T1, CTL2-GFP (C. trachomatis L2/434/Bu, GFP-expressing). Settings: bulk GFP, single well; 28.5 h, 10 µM; inhibitor.
T1 construct: L2/434/Bu, GFP-expressing
Set-up: species or system HeLa; Intracellular C. trachomatis growth in HeLa cells, bulk GFP fluorescence relative to DMSO

Row | Compound | % of control remaining [%]
1 | O=C(Nc1cccc(F)c1)N1CCC(Cc2cccnc2)CC1 [CBK306369] | 121.24
2 | Cc1ccc(/C(N)=N/OC(=O)COc2cccc3ccccc23)cc1 [CBK263009] | 112.138
3 | O=C(NCC(F)(F)F)c1ccc(-c2ccccc2)nc1NCc1cccnc1 [CBK076551] | 148.879
4 | Cc1ccc(NC(=O)CN2C(=O)S/C(=C\c3ccc4c(c3)n(C)c(=O)n4C)C2=O)cc1 [CBK264501] | 102.864
5 | CC(Sc1nc(-c2ccccc2)nc2ccccc12)C(=O)Nc1ccccc1C(F)(F)F (centres unmarked) [CBK265795] | 122.211
6 | O=C(NCc1ccccc1)C1(c2ccccc2)CCCC1 [CBK149540] | 168.469
7 | c1ccc(Cn2cc(-c3nccnc3OC3CCCCC3)cn2)cc1 [CBK107092] | 143.391
8 | O=C(NCCN1CCOCC1)N1CCN(CCc2ccccc2)CC1 [CBK158908] | 131.821
9 | Nc1cccc(-c2cc(C(=O)NCCc3cccnc3)cnc2-c2ccc(F)cc2)c1 [CBK038016] | 145.263
10 | COc1cc(C(C)=O)ccc1OCCCN1CCC(O)(C(=O)c2cccc(C(F)(F)F)c2)CC1 [CBK024866C] | 112.925
11 | CCCC/C=C/c1cncc(NCCO)n1 [CBK065419] | 180.199
12 | CC1=C(C(=O)OC(C)C)C(c2cccc(I)c2)C2=C(CCCC2=O)N1 (centres unmarked) [CBK026317] | 135.258
13 | COc1cccc(C(=O)C2=C(O)C(=O)N(CCCn3ccnc3)C2c2cccc(F)c2)c1 (centres unmarked) [CBK266419] | 112.671
14 | Cc1ccc(Cn2ncc3c(NCCCN4CCOCC4)ncnc32)cc1 [CBK077470] | 100
15 | Cc1cc(N2CCN(c3ccc(O)cc3)CC2)n2nc(-c3nccn3C)cc2n1 [CBK286188] | 132.472
16 | Cc1cccc(NC(=S)NNC(=O)CCC(=O)O)c1 [CBK261542] | 100
17 | CCN(CC)C(=O)CNS(=O)(=O)c1cc(Br)c(Cl)s1 [CBK034500] | 89.8616
18 | OC1(CN2CCCC2)CCN(Cc2sccc2Cl)CC1 [CBK307491] | 100.669
19 | CCNC(=O)C1CCCN(Cc2ncc(C)c(OC)c2C)C1 (centres unmarked) [CBK305081] | 136.657
20 | NNC(=O)CSc1nnc(-c2ccccc2)n1-c1ccccc1 [CBK223486] | 97.3397
21 | O=C1CC(N2CCN(c3ccccn3)CC2)C(=O)N1CCc1ccccc1 (centres unmarked) [CBK262282] | 100
22 | FC(F)(F)c1cc(-c2cc(N3CCC(N4CCCCC4)CC3)ncn2)cc(C(F)(F)F)c1 [CBK037692] | 149.993
23 | CCCOC1CCCN(Cc2c(C)n(CC(N)=O)c3ccccc23)C1 (centres unmarked) [CBK282797] | 121.547
24 | O=C1N/C(=N/N=C\c2cccc([N+](=O)[O-])c2)SC1Cc1ccc(Br)cc1 (centres unmarked) [CBK263125] | 99.7216
25 | COc1ccc(CCNC(=O)c2cnc3sc(C)cn3c2=O)cc1OC [CBK287709] | 79.9684

Row | Compound | % of control remaining [%]
26 | COc1ccc(NC(=O)NS(=O)(=O)c2sc3ccc(Cl)cc3c2C)cc1OC [CBK156300] | 117.325
27 | Cn1cc(C2C[S+]([O-])CCN2Cc2csc3ccccc23)cn1 (centres unmarked) [CBK304085] | 128.013
28 | CC(NC(=O)CCC(=O)O)C12CC3CC(CC(C3)C1)C2 (centres unmarked) [CBK287105] | 102.791
29 | COc1ccc(NC(=O)CCC(=O)N2CCC(C(=O)O)CC2)cc1 [CBK286588] | 90.459
30 | c1ccc2c(c1)OCC(c1nn3cnnc3s1)O2 (centres unmarked) [CBK269277] | 89.7016
31 | COC(=O)c1c(NC(=S)NCc2ccccn2)sc(C(=O)N(C)C)c1C [CBK267055] | 159.822
32 | O=C(Nc1ccc(C(=O)Nc2cccc(-c3nc4ccccc4o3)c2)cc1)c1ccc([N+](=O)[O-])cc1 [CBK262606] | 100
33 | c1nc(NCCN2CCOCC2)c2c3c(sc2n1)CCCCC3 [CBK268418] | 102.027
34 | COc1ccc(S(=O)(=O)Nc2cccc(C(=O)N3CCOCC3)c2)cc1OC [CBK039010] | 124.09
35 | COc1ncccc1C(=O)Nc1ccc(C)nc1C [CBK200292] | 102.326
36 | Cn1cnnc1SCC(=O)N1CCc2ccccc21 [CBK287576] | 139.925
37 | FC(F)C(F)(F)Oc1cccc(Nc2nccn3ccnc23)c1 [CBK066284] | 103.766
38 | COc1ccc(-c2cnc(Nc3ccc(N4CCOCC4)cc3)c3nccn23)cn1 [CBK091238] | 199.309
39 | COc1ccc(C(c2ccccn2)N(C)C(=O)C2CCN(S(=O)(=O)C(C)C)CC2)cc1 (centres unmarked) [CBK060280] | 100
40 | O=C(CSCc1ccc(Br)cc1)NCC1CCCO1 (centres unmarked) [CBK268506] | 148.253
41 | c1cnc2c(-c3cn4ccnc4c(NC4CC4)n3)cccc2c1 [CBK037911] | 109.509
42 | O=C(CC(CN1CCN(Cc2cccc(Cl)c2)CC1)C(=O)O)Nc1cccc(O)c1 (centres unmarked) [CBK286811] | 165.626
43 | O=C(CC1CCCCC1)N1CCC(n2nc(C3CC3)ccc2=O)CC1 [CBK284241] | 113.429
44 | CC(C)NC(=O)CCn1c(-c2ccncc2)cc2cccnc21 [CBK284931] | 81.863
45 | O=C(Cc1ccccc1)Nc1ccc(C(=O)O)cc1NC(=O)Cc1ccccc1 [CBK287049] | 99.5947
46 | CCC(C)(C)c1nnc(NC(=O)COc2ccc(Cl)cc2Cl)s1 [CBK058435] | 112.309
47 | Cc1cc(=O)oc2cc(NC(=S)N3CCN(C/C=C/c4ccccc4)CC3)ccc12 [CBK267045] | 164.695
48 | O=C(c1ccccc1)c1ccc(S(=O)(=O)N2CCN(Cc3ccc(O)c(F)c3)CC2)cc1 [CBK062948] | 101.072
49 | O=C(Nc1ccccc1)O[C@@H]1CO[C@H]2[C@@H]1OC[C@@H]2NC(=O)C1CC1 [CBK289464] | 130.312
50 | COc1ccc(C(=O)Nc2cccc(-c3nc4ccccc4[nH]3)c2)c(OC)c1 [CBK072662] | 88.2134

Some values from the results shown:
% of control remaining [%], `COc1ccc(NC(=O)NS(=O)(=O)c2sc3ccc(Cl)cc3c2C)cc1OC` [CBK156300] is entered as 117.325
% of control remaining [%], `COc1ccc(-c2cnc(Nc3ccc(N4CCOCC4)cc3)c3nccn23)cn1` [CBK091238] is entered as 199.309
